# Laboratory results: PubChem BioAssay AID624297 (National Center for Advancing Translational Sciences (NCATS), 2012)
# In all, about 340,000 compounds went through this assay and about 6,200 (1.8%) were called active. This list was built around the results that the source calls inconclusive (neither active nor inactive); the mix of calls is not that of the screen. Calls come from the whole dose curve; as a rule, active = well fitted activation curve with a large enough effect; inconclusive = small, poorly fitted or top-dose-only effect; inactive = no such curve, though single readings can be large or run the other way. Where the call is inconclusive, the potency comes from a doubtful curve fit.
# Test: A quantitative high throughput screen for small molecules that induce DNA re-replication in SW480 colon adenocarcinoma cells. Note: nearly all actives have a fitted effect of over 55% in size.
# Conditions: Hoechst DNA content imaging, 48 h; series mostly up to 46.1 µM
# Procedure, shortened: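 Compounds, transferred as 23 nL by pin tool, were incubated with cells for 48 hr; DNA content per nucleus was then quantified by Hoechst staining and fluorescence plate imaging.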
# Potency is the fitted concentration of half-maximal effect.
row,SMILES,Potency
1,COc1cc(OC)cc(-c2c(C#Cc3ccsc3)c3cc(-c4ccc(SC)cc4)ccc3n2C)c1,inactive
2,Cc1ccc(C(=O)c2cc([N+](=O)[O-])ccc2N2CCOCC2)c(C)c1,active: 0.13 µM
3,O=C(COc1ccccc1Br)Nc1ccc2c(c1)OCCCO2,"inconclusive: 2.51 µM [activator, single point]"
4,CNC(=O)c1c(NC(=O)CCS(=O)(=O)c2ccccc2)sc(C)c1C,inactive
5,COc1ccc(CCNC(=O)Cc2ccccc2)cc1OC,"inconclusive: 29.1 µM [activator, single point]"
6,Cc1c(C(=O)Nc2ccc(C(=O)Nc3ccccc3)cc2)cccc1[N+](=O)[O-],inactive
7,COC(=O)C1=C(C)NC(=O)CC1c1ccccc1F (stereo not given),"inconclusive: 18.4 µM [activator, single point]"
8,O=C(NC(=O)c1cc(OCC(F)(F)F)ccc1OCC(F)(F)F)Nc1ccccc1,"inconclusive: 14.6 µM [activator, single point]"
9,COc1ccc(N(CC(=O)Nc2cc(Cl)ccc2OC)S(=O)(=O)c2c(C)[nH]c(=O)[nH]c2=O)cc1,"inconclusive: 18.4 µM [activator, single point]"
10,C=CC[n+]1ccn(-c2nc3ccccc3nc2[N-]S(=O)(=O)c2cccs2)c1,"inconclusive: 29.1 µM [activator, single point]"
11,COc1ccc(C2CC(c3ccccc3Cl)=NN2c2ccc(S(N)(=O)=O)cc2)cc1 (stereo not given),active: 2.31 µM
12,Cc1cc(-c2ccc(C)c(S(=O)(=O)NCC3CCN(Cc4cccc(F)c4)CC3)c2)on1,"inconclusive: 23.1 µM [activator, single point]"
13,CCCCc1ccc(NC(=O)Nc2cc(C)nn2C)cc1,inactive
14,COc1ccc(CCNC(=O)c2ccc(-c3ccc([N+](=O)[O-])cc3Cl)o2)cc1,inactive
15,COc1ccccc1C1=CC(=O)C[C@H](c2ccc(Cl)cc2)C1,"inconclusive: 3.66 µM [activator, partial curve, poor fit]"
16,Cc1ccc(CNC(=O)COC(=O)c2cncc(Br)c2)cc1,inactive
17,Brc1ccccc1OCCCN1CCCCCC1,"inconclusive: 6.51 µM [activator, partial curve, poor fit]"
18,O=C(NC(=S)N1CCCCC1CO)C12CC3CC(CC(C3)C1)C2 (stereo not given),inactive
19,Cc1ccc(C=Nc2ccc(N(C)C)cc2)o1,"inconclusive: 16.4 µM [activator, single point]"
20,O=C1Cc2c([nH]c3ccc([N+](=O)[O-])cc23)-c2ccccc2N1,"inconclusive: 8.2 µM [activator, partial curve, poor fit]"

# 5 entries from above, tab-delimited:
row	SMILES	Potency
8	O=C(NC(=O)c1cc(OCC(F)(F)F)ccc1OCC(F)(F)F)Nc1ccccc1	inconclusive: 14.6 µM [activator, single point]
9	COc1ccc(N(CC(=O)Nc2cc(Cl)ccc2OC)S(=O)(=O)c2c(C)[nH]c(=O)[nH]c2=O)cc1	inconclusive: 18.4 µM [activator, single point]
10	C=CC[n+]1ccn(-c2nc3ccccc3nc2[N-]S(=O)(=O)c2cccs2)c1	inconclusive: 29.1 µM [activator, single point]
11	COc1ccc(C2CC(c3ccccc3Cl)=NN2c2ccc(S(N)(=O)=O)cc2)cc1 (stereo not given)	active: 2.31 µM
12	Cc1cc(-c2ccc(C)c(S(=O)(=O)NCC3CCN(Cc4cccc(F)c4)CC3)c2)on1	inconclusive: 23.1 µM [activator, single point]
